Laboratory results: PubChem BioAssay AID1487 (National Center for Advancing Translational Sciences (NCATS), 2009)
Several values for one entry are separate records, joined by “and”; a condition that tells them apart may be missing. Equal values may be shown once. The list shows a part of the results. These are further read-outs of the screen, such as a control signal, another cell line or another target. No call is given for them. Most of these compounds were active or inconclusive in the main read-out, so they are no random draw. Words in brackets tell the shape of the fitted curve; partial curves, single points and poor fits give uncertain potencies.

Assay: qHTS Assay for Modulators of Lamin A Splicing
Conditions: HeLa LMNA splicing GFP/RFP minigene ratio, 48 h
Outline: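 S3 HeLa stable clones carrying a lamin A-EGFP splicing minigene plus DsRed2 were seeded at 600 cells/well in Opti-MEM with 2% FBS, pin-dosed and incubated 48 h at 37°C. Acumen cytometry (488 nm) gave the GFP/RFP total-intensity ratio.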

[1] = measured here: GFP splicing reporter channel
[2] = measured here: RFP viability control channel

Row | SMILES | AC50 [1] | AC50 [2]
1 | O=C(NC1CCCCC1)c1ccc(S(=O)(=O)NCc2cccnc2)cc1 | 20 µM [rising, single point] | 17.8 µM [rising, partial curve]
2 | Cc1ccc(C(=O)OCC(=O)c2c[nH]c3ccccc23)cc1NC(=O)c1ccco1 | 20 µM [falling, partial curve, poor fit] | –
3 | O=C(CS(=O)c1ccc(C(F)(F)F)cc1[N+](=O)[O-])Oc1ccccc1 (stereo not given) | 35.5 µM [falling, single point] | –
4 | CCc1ccc2nc3n[nH]c(N)c3cc2c1 | – | 11.2 µM [falling, partial curve]
5 | OCCNCc1cc(Br)ccc1OCc1ccc(F)cc1 | 14.1 µM [falling, single point] | –
6 | Cc1ccccc1C(=O)Nc1ccc(OCc2cc(=O)n3ccccc3n2)cc1 | 20 µM [falling, single point] | –
7 | Cc1ccc(CCNC(=O)c2c[nH]c3ccc(S(=O)(=O)Nc4ccc(C)cc4C)cc3c2=O)cc1 | 28.2 µM [falling, single point] | –
8 | COc1ccc2nc(Nc3nc4cc5c(cc4s3)OCCO5)sc2c1 | – | 11.2 µM [rising, single point]
9 | Clc1ccccc1N/N=C/c1ccc2c(c1)OCO2 | 35.5 µM [rising, single point] | –
10 | CC(C)OC(=O)/C(=C/c1ccc(Br)cc1)NC(=O)c1ccco1 | – | 5.62 µM [rising, partial curve, poor fit]
11 | Cc1cccc(NC(=O)CN2C(=O)C(C)Oc3ccccc32)n1 (stereo not given) | 25.1 µM [rising, partial curve] | –
12 | O=C(CSc1nnc(COc2ccccc2)n1Cc1ccco1)c1ccc(F)cc1 | 15.8 µM [rising, partial curve] | 12.6 µM [rising, partial curve]
13 | CC(NC(=O)CCNC(=O)c1ccccc1Cl)C1CC2CCC1C2 (stereo not given) | 31.6 µM [rising, single point] | 31.6 µM [rising, single point]
14 | O=C(Nc1cccc(F)c1)Nc1ccccn1 | 0.00501 µM [falling, full curve] | 0.00891 µM [falling, full curve]
15 | N#Cc1cccn1-c1nccs1 | – | 6.31 µM [falling, partial curve]
16 | O=C(NCCNCc1cccs1)c1ccccc1F | 0.01 µM [falling, full curve, poor fit] | –
17 | Cc1[nH]c(=O)c(C#N)cc1-c1ccncc1 | 0.0562 µM [falling, full curve, poor fit] | 14.1 µM [falling, single point]
18 | Cc1ccccc1N1CCN(Cc2c[nH]c3ccccc23)CC1 | – | 14.1 µM [rising, single point]
19 | COC(=O)CCNC(=O)NC(CCC(C)C)c1c(-n2cccc2)sc2c1CCN(C)C2 (stereo not given) | – | 0.0224 µM [rising, full curve, poor fit]

3 structures already listed, ordered by formula weight, largest number first:
Row | SMILES | AC50 [1] | AC50 [2]
1 | O=C(NC1CCCCC1)c1ccc(S(=O)(=O)NCc2cccnc2)cc1 | 20 µM [rising, single point] | 17.8 µM [rising, partial curve]
5 | OCCNCc1cc(Br)ccc1OCc1ccc(F)cc1 | 14.1 µM [falling, single point] | –
13 | CC(NC(=O)CCNC(=O)c1ccccc1Cl)C1CC2CCC1C2 (stereo not given) | 31.6 µM [rising, single point] | 31.6 µM [rising, single point]

Remaining list, next part

Row | SMILES | AC50 [1] | AC50 [2]
20 | COc1cccc(N2CCN(c3ncnc4c3[nH]c3ccccc34)CC2C)c1 (stereo not given) | 35.5 µM [falling, single point] | 28.2 µM [falling, single point]
21 | S=C(Nc1ccc(Cl)c(Cl)c1)NC1CCN(Cc2ccccc2)CC1 | 11.2 µM [rising, single point] | 25.1 µM [rising, single point]
22 | CC(C)C(NC(=O)C(NC(=O)C1OC2OC(C)(C)OC2C2OC(C)(C)OC12)C(C)C)C(=O)O (stereo not given) | 8.91 µM [falling, partial curve, poor fit] | –
23 | CCOC(=O)C1=C(C)NC(C)=C(C(=O)OCC)C1C | – | 35.5 µM [rising, single point]
24 | OCCCNC(=S)Nc1ccc(Oc2ccccc2)cc1 | 5.01 µM [rising, partial curve] | 14.1 µM [rising, single point]
25 | O=C(OCC(=O)N1CCc2ccccc21)c1cncc(Br)c1 | 0.00501 µM [rising, full curve, poor fit] | 0.00447 µM [rising, full curve, poor fit]
26 | Cc1cc([N+](=O)[O-])nn1CCCC(=O)Nc1cccnc1Cl | – | 10 µM [falling, partial curve]
27 | O=C(c1ccco1)N1CCN=C1SCc1cccnc1 | – | 31.6 µM [rising, single point]
28 | COc1cccc(/C=N/NC(=O)C(C)n2nc(C)c([N+](=O)[O-])c2C)c1O (stereo not given) | – | 8.91 µM [rising, partial curve]
29 | Cc1cc(CSc2ccccc2)ccc1NC(=O)c1ccc(CN2CCOCC2)cc1 | – | 0.501 µM [rising, full curve]
30 | C#C[C@]1(O)CC[C@H]2[C@@H]3CCc4cc(OC5CCCC5)ccc4[C@H]3CC[C@@]21C | 25.1 µM [falling, partial curve] | 501 nM [falling, partial curve, poor fit] and 112 nM [rising, full curve, poor fit]
31 | Cc1cc(C)nc(N(C#N)CCOc2ccccc2)n1 | 6.31 µM [rising, partial curve, poor fit] | –
32 | COc1cc(NC(=O)COC(=O)c2ccc(C)c(S(=O)(=O)N3CCCCC3)c2)c(C)cc1[N+](=O)[O-] | – | 22.4 µM [rising, single point]
33 | CCn1c(SCC(=O)N2CCN(c3ccccc3)CC2)nnc1-c1c[nH]c2ccccc12 | – | 11.2 µM [rising, partial curve]
34 | CCOc1ccc(CNC(=O)c2cnc3sc(N4CCOCC4)nn3c2=O)cc1 | 0.224 µM [rising, full curve, poor fit] | –
35 | CCn1cc(C(=O)N2CCN(c3cccc(Cl)c3)CC2)c2cc(OC)c(OC)cc2c1=O | – | 8.91 µM [rising, partial curve]
36 | COc1ccc(NC(C)=O)cc1CNC(=O)COc1c(C)c(C)cc(C)c1C | – | 14.1 µM [rising, single point]
37 | O=c1cnn(-c2ccccc2)c(-c2ccccc2)c1 | 8.91 µM [rising, partial curve, poor fit] | 12.6 µM [rising, single point]
38 | Cc1ccc2c(C)nc(Nc3nc(CSc4nc5ccccc5[nH]4)cc(=O)[nH]3)nc2c1 | 11.2 µM [falling, partial curve] | 15.8 µM [falling, partial curve]

Row | SMILES | AC50 [1] | AC50 [2]
39 | Nc1c(C(=O)NCc2ccc(Cl)cc2)sc2nc3c(c(C(F)(F)F)c12)CCC3 | 35.5 µM [rising, single point] | 35.5 µM [rising, single point]
40 | COc1ccc(-c2nnc(SCC(=O)Nc3cc(C)on3)o2)cc1 | – | 0.00794 µM [falling, full curve, poor fit]
41 | Cc1cccc(NC(=O)c2cc(S(=O)(=O)NCc3ccco3)ccc2F)c1C | – | 31.6 µM [rising, single point]
42 | Cc1csc(NC(=O)CCc2c(C)nc3cc(-c4ccc(Cl)cc4)nn3c2C)n1 | – | 5.62 µM [rising, single point]
43 | CCCNC(=O)NC(=O)CSc1nc2ccccc2n1CC(C)C | 20 µM [rising, single point] | 31.6 µM [rising, single point]
44 | O=C(NCCSCc1ccc(Cl)cc1Cl)c1ccc(CN2CCOCC2)cc1 | 4.47 µM [rising, full curve] | 10 µM [rising, partial curve]
45 | Cc1ccc(C(=O)COC(=O)CNS(=O)(=O)c2ccccc2)cc1[N+](=O)[O-] | 14.1 µM [rising, partial curve, poor fit] | –
46 | CCc1ccc(OCCNC(=O)c2ccccc2SCc2ccc(F)cc2)cc1 | – | 28.2 µM [falling, single point]
47 | Cc1ccc(Nc2nc(N)nc(CN3CCN(Cc4ccc5c(c4)OCO5)CC3)n2)cc1 | – | 10 µM [rising, partial curve, poor fit]
48 | Cc1cccc(N=C2NC(=O)/C(=C/c3cccs3)S2)c1 | 1.78 µM [rising, partial curve, poor fit] | 35.5 µM [falling, single point]
49 | O=c1[nH]c2cc3c(cc2cc1CN(Cc1ccccc1)Cc1nnnn1Cc1ccco1)OCCO3 | – | 35.5 µM [rising, single point]
50 | Cc1cc(NCCCn2ccnc2)n2ncc(-c3ccc(Cl)cc3)c2n1 | – | 35.5 µM [falling, single point]
51 | Clc1ccc(-c2cnn3c(-c4ccncc4)ccnc23)cc1 | 28.2 µM [falling, single point] | –
52 | Cc1ccc(C)c(Nc2ncnc(N)c2[N+](=O)[O-])c1 | 0.141 µM [rising, partial curve, poor fit] | 0.1 µM [rising, partial curve]
53 | O=C(NCc1ccc2c(c1)OCO2)c1ccc(Cl)c(S(=O)(=O)N2CCOCC2)c1 | 35.5 µM [falling, single point] | –
54 | O=C(O)CC(NC(=O)Nc1ccccc1)c1ccc(OC2CCCC2)cc1 (stereo not given) | 1.26 µM [rising, single point] | –
55 | COc1ccc(CCNC(=O)c2nnn(CC(=O)Nc3cccc(F)c3)c2N)cc1OC | 6.31 µM [falling, partial curve] | 6.31 µM [falling, partial curve, poor fit]
56 | CCc1ccc(-c2csc(-c3c[nH]c4ccccc34)n2)cc1 | – | 25.1 µM [rising, single point]
57 | Cc1cccc(C)c1N=C1NN=C(c2ccccc2F)CS1 | – | 35.5 µM [rising, single point]
